Reference: patent publication US10815239B2, “Compounds useful as inhibitors of ATR kinase” (Vertex Pharmaceuticals Incorporated, priority 2013, dated 2020)
Some of these results come from one statement about several compounds together.

System: HCT116 colorectal cancer cells
Assay: Cisplatin Sensitization Assay (96 h cell viability MTS)
Format: cell-based
Conditions: compound and Cisplatin added simultaneously

SMILES | Cisplatin sensitization value (concentration of compound required to reduce the IC50 of Cisplatin alone by at least 3-fold) [µM]
[2H]C1([2H])N(C(=O)C2CCN(c3c(F)cncc3NC(=O)c3c(N)nn4cc(F)cnc34)CC2)C([2H])([2H])C([2H])([2H])N(C2COC2)C1([2H])[2H] [Compound I-3, 2-amino-6-fluoro-N-(5-fluoro-4-(4-(2,2,3,3,5,5,6,6-octadeutero-4-(oxetan-3-yl)piperazine-1-carbonyl)piperidin-1-yl)-3-pyridyl)pyrazolo[1,5-a]pyrimidine-3-carboxamide] | < 0.2
Nc1nn2cc(F)cnc2c1C(=O)Nc1cncc(F)c1N1CCC(C(=O)N2CCN(C3COC3)CC2)CC1 [Compound I-1, 2-amino-6-fluoro-N-[5-fluoro-4-[4-[4-(oxetan-3-yl)piperazine-1-carbonyl]-1-piperidyl]-3-pyridyl]pyrazolo[1,5-a]pyrimidine-3-carboxamide] | < 0.2
